Earlier results on one compound are cited in paper PMC7024557, “Synthesis of Novel Structural Hybrids between Aza-Heterocycles and Azelaic Acid Moiety with a Specific Activity on Osteosarcoma Cells” (Molecules, 2020).

The structures appear in SMILES notation.

The subject of this data set is human osteosarcoma growth. Details: method as in PMID 24344034, PMID 30697272. As to conditions: ref [32],[33]; read-out: IC50, inhibition of human osteosarcoma growth; cited from earlier work.

For orientation: IC50 means the concentration that gives 50% inhibition. Regarding `O=C(CCCCCCC(=O)Nc1ccccc1)NO` [SAHA, SuberAniloHydroxamic Acid], the IC50 is 5 µM.
